In PubChem BioAssay (NCATS):
The shares of active, inactive and inconclusive entries below differ from those in the screen. For some assays here: Where the call is inconclusive, the potency comes from a doubtful curve fit. Activity calls are given as the source filed them. Calls follow the shape of the dose curve; as a rule, active = well fitted cell-killing curve with a large enough effect; inconclusive = small, poorly fitted or top-dose-only effect; inactive = flat fitted curve, though single readings scatter.

What was measured:
[1] = Cell Viability - LYMP2-015 (AID 971); also: nearly all actives have a fitted effect of over 55% in size
How it was run: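 LYMP2-015 human lymphoblastoid cells (2500/well) in complete medium, compound-treated 24 h at 37 C; viability read as cellular ATP by CellTiter-Glo luminescence after 30 min at room temperature. AC50 from Hill-equation fits of qHTS concentration-response data.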

[2] = Cell Viability - LYMP2-017 (AID 972); details: LYMP2-017 lymphoblastoid cell viability; also: nearly all actives have a fitted effect of over 55% in size
How it was run: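 LYMP2-017 human lymphoblastoid cells (2500/well) settled 5 hr at 37 C, then exposed to compound 24 hr at 37 C in complete medium. Viability taken as intracellular ATP by CellTiter-Glo luminescence after 30 min at RT; AC50 from Hill fits.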

[3] = Cell Viability - LYMP2-019 (AID 973); also: nearly all actives have a fitted effect of over 55% in size
How it was run: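 Human lymphoblastoid LYMP2-019 cells (2500/well) preincubated 5 h at 37 C, then treated 24 h at 37 C in complete medium. Viability by CellTiter-Glo ATP luminescence after 30 min at room temperature; AC50 from Hill fits.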

[4] = Cell Viability - LYMP2-025 (AID 976)
How it was run: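 Human lymphoblastoid LYMP2-025 cells, 2500/well, exposed 24 h at 37 C in complete medium in 1536-well qHTS. Viability as cellular ATP by CellTiter-Glo luminescence; AC50 from Hill fits of concentration-response data.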

[5] = Cell Viability - LYMP2-002 (AID 977)
How it was run: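 Luminescent ATP readout (CellTiter-Glo, 30 min room temperature) after 24 h compound exposure at 37 C of a human lymphoblastoid line, 2500 cells/well. AC50 values derived by standard Hill fitting of qHTS concentration-response data.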

[6] = Cell Viability - LYMP2-006 (AID 978); also: nearly all actives have a fitted effect of over 60% in size
How it was run: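 Human lymphoblastoid cells (LYMP2-006), 2500/well in complete medium, were treated with compound for 24 hr at 37 C. Cellular ATP was read by CellTiter-Glo luminescence after 30 min, and AC50 values came from Hill-equation fits of concentration-response data.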

[7] = Cell Viability - LYMP2-008 (AID 980); also: nearly all actives have a fitted effect of over 60% in size
How it was run: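 LYMP2-008 lymphoblastoid cells (2500/well) plated 5 h, then treated 24 h at 37 C in complete medium. Viability read as intracellular ATP by CellTiter-Glo luminescence after 30 min at room temperature; AC50 from Hill fits.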

[8] = Cell Viability - LYMP2-018 (AID 985); details: LYMP2-018 lymphoblastoid cells, viability (qHTS);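 also: compound exposure lasted 24 hr at 37 °C; nearly all actives have a fitted effect of over 50% in size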
How it was run: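 Human lymphoblastoid LYMP2-018 cells, 2500/well, settled 5 hr at 37 C then exposed to compound 24 hr at 37 C; intracellular ATP measured by CellTiter-Glo luminescence. AC50 from Hill-equation concentration-response fits.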

[9] = Cell Viability - LYMP2-020 (AID 986); also: nearly all actives have a fitted effect of over 55% in size
How it was run: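 Human lymphoblastoid LYMP2-020 cells (2500/well) preincubated 5 h at 37 C, then treated 24 h at 37 C. Viability measured as intracellular ATP by CellTiter-Glo luminescence after 30 min at room temperature; AC50 from Hill fits.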

[10] = Cell Viability - LYMP2-010 (AID 981); also: nearly all actives have a fitted effect of over 55% in size
How it was run: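 Human lymphoblastoid LYMP2-010 cells (2500/well) treated 24 h at 37 C in complete medium; viability read as intracellular ATP by CellTiter-Glo luminescence. AC50 from Hill fits of concentration-response data; tetraoctylammonium bromide positive control.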

[11] = Cell Viability - LYMP2-011 (AID 969); also: nearly all actives have a fitted effect of over 60% in size
How it was run: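 2500 cells/well in complete medium, compound-treated 24 h at 37 C. Viability read as intracellular ATP by CellTiter-Glo luminescence after 30 min at room temperature. AC50 from Hill fits of qHTS concentration-response data.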

[12] = Cell Viability - LYMP2-013 (AID 970); details: LYMP2-013 lymphoblastoid cells viability; also: nearly all actives have a fitted effect of over 55% in size
How it was run: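 Human lymphoblastoid LYMP2-013 cells, 2500/well, treated 24 h at 37 C in complete medium; viability as intracellular ATP by CellTiter-Glo luminescence after 30 min. AC50 from Hill fits of qHTS concentration-response.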

[13] = Cell Viability - LYMP2-021 (AID 974)
How it was run: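 Human lymphoblastoid LYMP2-021 cells, 2500/well in complete medium, treated 24 hours at 37 C. Intracellular ATP by CellTiter-Glo luminescence (30 min, RT); AC50 from Hill fits of concentration-response.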

[14] = Cell Viability - LYMP2-023 (AID 975); details: LYMP2-023 lymphoblastoid cell viability; series mostly up to 92.2 µM; also: nearly all actives have a fitted effect of over 55% in size
How it was run: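 LYMP2-023 human lymphoblastoid cells, 2500/well, preincubated 5 hr at 37 C, then compound-treated 24 hr at 37 C in complete medium. CellTiter-Glo luminescence (ATP) after 30 min at room temperature; AC50 from Hill-equation fits; tetraoctylammonium bromide positive control.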

[15] = Cell Viability - LYMP2-007 (AID 979); details: LYMP2-007 lymphoblastoid cell viability;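 also: cells exposed to compound for 24 h before reading; nearly all actives have a fitted effect of over 60% in size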
How it was run: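 Human lymphoblastoid LYMP2-007 cells (2500/well) preincubated 5 h at 37 C, then treated 24 h at 37 C in complete medium. Viability by CellTiter-Glo ATP luminescence after 30 min at room temperature; AC50 from Hill fits.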

[16] = Cell Viability - LYMP2-014 (AID 983); details: LYMP2-014 lymphoblastoid cells, viability qHTS; also: nearly all actives have a fitted effect of over 50% in size
How it was run: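 LYMP2-014 human lymphoblastoid cells, 2500/well, treated 24 h at 37 C in complete medium; viability by CellTiter-Glo ATP luminescence after 30 min at room temperature. AC50 from Hill fits of qHTS concentration-response; tetraoctylammonium bromide positive control.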

[17] = Cell Viability - LYMP2-016 (AID 984); details: LYMP2-016 lymphoblastoid cell viability, qHTS; also: nearly all actives have a fitted effect of over 55% in size
How it was run: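 Human lymphoblastoid LYMP2-016 cells, 2500 per well, treated with compounds for 24 h at 37 C. Viability read as intracellular ATP by CellTiter-Glo luminescence after 30 min at room temperature; AC50 from Hill fits of concentration-response.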

[18] = Cell Viability - LYMP2-022 (AID 987); also: nearly all actives have a fitted effect of over 55% in size
How it was run: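 LYMP2-022 lymphoblastoid cells (2500/well, complete medium) were treated with compounds for 24 hours at 37 C; intracellular ATP was then read by CellTiter-Glo luminescence after 30 min at room temperature. AC50 values were derived from Hill-equation fits.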

Measured: Potency
Potency is read from the fitted curve at half-maximal effect.

NC(=NCCCCCCN=C(N)/N=C(\N)Nc1ccc(Cl)cc1)/N=C(\N)Nc1ccc(Cl)cc1
active: [1] 39.8 µM | [2] 39.8 µM | [6] 39.8 µM | [7] 39.8 µM | [8] 39.8 µM | [9] 39.8 µM
inconclusive: [3] 39.8 µM [cytotoxic, partial curve, poor fit] | [4] 50.1 µM [cytotoxic, partial curve, poor fit] | [5] 39.8 µM [cytotoxic, partial curve, poor fit]

CCCCC/C=C\C/C=C\CCCCCCCC(=O)O
inconclusive: [10] 50.1 µM [cytotoxic, partial curve]

CC(C)=O
inactive: [7]

Nc1ncn([C@@H]2O[C@H](CO)[C@@H](O)[C@H]2O)c(=O)n1
inconclusive: [11] 25.1 µM [cytotoxic, partial curve] | [12] 31.6 µM [cytotoxic, partial curve] | [1] 25.1 µM [cytotoxic, partial curve] | [2] 15.8 µM [cytotoxic, partial curve, poor fit] | [3] 12.6 µM [cytotoxic, full curve] | [13] 15.8 µM [cytotoxic, full curve] | [14] 15.8 µM [cytotoxic, full curve] | [4] 20 µM [cytotoxic, partial curve, poor fit] | [5] 10 µM [cytotoxic, full curve, poor fit] | [15] 31.6 µM [cytotoxic, partial curve] | [7] 15.8 µM [cytotoxic, full curve] | [16] 10 µM [cytotoxic, full curve] | [17] 15.8 µM [cytotoxic, full curve]
active: [9] 10 µM | [18] 15.8 µM

For convenience, 2 of the compounds above:
NC(=NCCCCCCN=C(N)/N=C(\N)Nc1ccc(Cl)cc1)/N=C(\N)Nc1ccc(Cl)cc1
active: [1] 39.8 µM | [2] 39.8 µM | [6] 39.8 µM | [7] 39.8 µM | [8] 39.8 µM | [9] 39.8 µM
inconclusive: [3] 39.8 µM [cytotoxic, partial curve, poor fit] | [4] 50.1 µM [cytotoxic, partial curve, poor fit] | [5] 39.8 µM [cytotoxic, partial curve, poor fit]

CCCCC/C=C\C/C=C\CCCCCCCC(=O)O
inconclusive: [10] 50.1 µM [cytotoxic, partial curve]
